No constants are given. Whether binding was seen depends on the method and setting. For some assays here: In cells and extracts the contact can be indirect. Some entries that bind do so weakly or less than the wild type.
Legend:
[1] = target: ATF6α (endogenous, uncleaved) (human (endogenous in HEK293)) (UniProt P18850); assay: cross-linking
[2] = target: ATF6α (endogenous, uncleaved) (human (endogenous in HEK293)) (UniProt P18850); assay: native gel or EMSA

Chains of the proteins cited; added tags and fusions are not shown.
UniProt P18850: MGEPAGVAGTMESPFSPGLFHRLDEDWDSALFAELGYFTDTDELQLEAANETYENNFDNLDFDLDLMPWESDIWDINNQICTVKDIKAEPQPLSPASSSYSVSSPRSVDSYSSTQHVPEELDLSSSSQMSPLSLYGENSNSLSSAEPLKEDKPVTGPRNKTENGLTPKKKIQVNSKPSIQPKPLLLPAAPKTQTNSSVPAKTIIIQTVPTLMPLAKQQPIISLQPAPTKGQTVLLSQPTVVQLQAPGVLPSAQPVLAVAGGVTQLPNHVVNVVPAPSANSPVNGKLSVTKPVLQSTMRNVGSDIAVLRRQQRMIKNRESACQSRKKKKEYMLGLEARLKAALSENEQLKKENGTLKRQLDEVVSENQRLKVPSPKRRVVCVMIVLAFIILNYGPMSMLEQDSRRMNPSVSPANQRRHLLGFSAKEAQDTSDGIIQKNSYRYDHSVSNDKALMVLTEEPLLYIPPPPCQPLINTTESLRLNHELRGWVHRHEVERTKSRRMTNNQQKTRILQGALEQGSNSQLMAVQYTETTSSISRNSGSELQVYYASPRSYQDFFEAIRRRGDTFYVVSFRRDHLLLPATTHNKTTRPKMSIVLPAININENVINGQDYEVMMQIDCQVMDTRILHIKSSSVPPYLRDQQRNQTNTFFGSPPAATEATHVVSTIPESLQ

ATF6α (endogenous, uncleaved) (from UniProt P18850 1-670)
binding [1]: binds | binding [2]: binds
